PubChem BioAssay AID1259425 – University of Nebraska Medical Center – 2018
Here is a random part of about 14,000 reagents tested. Not all columns of the deposit are shown. Not stated in the record: the time to read-out.

Aim: 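Seek colon cancer weak points whose silencing resembles KSR1 loss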 (primary screen)
System: HCT116 human colon cancer cells
Knock-down reagent: siRNA pool against human genes, 50 nM siRNA
Read-out: 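mRNA of six signature genes measured together by branched-DNA assay after 50 nM siRNA pool, blank removed, divided by geometric mean of two housekeeping genes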
Reading the numbers: BNIP3L mRNA: higher = more BNIP3L transcript after knockdown; NDRG1 mRNA: higher = more NDRG1 transcript after knockdown

WNT8A (Wnt family member 8A): BNIP3L mRNA, set 1 = 0.147; NDRG1 mRNA, set 1 = 0.166
TSBP1 (testis expressed basic protein 1): BNIP3L mRNA, set 1 = 0.169; NDRG1 mRNA, set 1 = 0.921
MYOG (myogenin): BNIP3L mRNA, set 1 = 0.0859; NDRG1 mRNA, set 1 = 0.0435
NAA80 (N-alpha-acetyltransferase 80, NatH catalytic subunit): BNIP3L mRNA, set 1 = 0.0642; NDRG1 mRNA, set 1 = 0.0745
CDC14A (cell division cycle 14A): BNIP3L mRNA, set 1 = 0.0863; NDRG1 mRNA, set 1 = 0.176
VPS51 (VPS51 subunit of GARP complex): BNIP3L mRNA, set 1 = 0.112; NDRG1 mRNA, set 1 = 0.203
FEV (FEV transcription factor, ETS family member): BNIP3L mRNA, set 1 = 0.23; NDRG1 mRNA, set 1 = 0.449
KIAA0232: BNIP3L mRNA, set 1 = 0.0853; NDRG1 mRNA, set 1 = 0.255
DPH5 (diphthamide biosynthesis 5): BNIP3L mRNA, set 1 = 0.0871; NDRG1 mRNA, set 1 = 0.328
GAS2L1 (growth arrest specific 2 like 1): BNIP3L mRNA, set 1 = 0.0921; NDRG1 mRNA, set 1 = 0.174
LY75 (lymphocyte antigen 75): BNIP3L mRNA, set 1 = 0.14; NDRG1 mRNA, set 1 = 0.509
RAB4A (RAB4A, member RAS oncogene family): BNIP3L mRNA, set 1 = 0.164; NDRG1 mRNA, set 1 = 0.805
GPR142 (G protein-coupled receptor 142): BNIP3L mRNA, set 1 = 0.159; NDRG1 mRNA, set 1 = 0.912
IDS (iduronate 2-sulfatase): BNIP3L mRNA, set 1 = 0.228; NDRG1 mRNA, set 1 = 0.236
STARD10 (StAR related lipid transfer domain containing 10): BNIP3L mRNA, set 1 = 0.126; NDRG1 mRNA, set 1 = 0.612
COL21A1 (collagen type XXI alpha 1 chain): BNIP3L mRNA, set 1 = 0.092; NDRG1 mRNA, set 1 = 0.981
CRTC1 (CREB regulated transcription coactivator 1): BNIP3L mRNA, set 1 = 0.272; NDRG1 mRNA, set 1 = 1.17
DNALI1 (dynein axonemal light intermediate chain 1): BNIP3L mRNA, set 1 = 0.0587; NDRG1 mRNA, set 1 = 0.102
SUCLG1 (succinate-CoA ligase GDP/ADP-forming subunit alpha): BNIP3L mRNA, set 1 = 0.212; NDRG1 mRNA, set 1 = 0.237
PKHD1 (PKHD1 ciliary IPT domain containing fibrocystin/polyductin): BNIP3L mRNA, set 1 = 0.051; NDRG1 mRNA, set 1 = 0.219
HIF1A (hypoxia inducible factor 1 subunit alpha): BNIP3L mRNA, set 1 = 0.0689; NDRG1 mRNA, set 1 = 0.0583
F2RL1 (F2R like trypsin receptor 1): BNIP3L mRNA, set 1 = 0.154; NDRG1 mRNA, set 1 = 0.226
GNL3 (G protein nucleolar 3): BNIP3L mRNA, set 1 = 0.101; NDRG1 mRNA, set 1 = 0.625
UFD1 (ubiquitin recognition factor in ER associated degradation 1): BNIP3L mRNA, set 1 = 0.14; NDRG1 mRNA, set 1 = 0.279
EXOSC1 (exosome component 1): BNIP3L mRNA, set 1 = 0.318; NDRG1 mRNA, set 1 = 0.563
APOH (apolipoprotein H): BNIP3L mRNA, set 1 = 0.123; NDRG1 mRNA, set 1 = 0.166
GPR88 (G protein-coupled receptor 88): BNIP3L mRNA, set 1 = 0.0901; NDRG1 mRNA, set 1 = 0.269
AGPAT3 (1-acylglycerol-3-phosphate O-acyltransferase 3): BNIP3L mRNA, set 1 = 0.202; NDRG1 mRNA, set 1 = 0.371

Already shown: an excerpt of the list.
SUCLG1 (succinate-CoA ligase GDP/ADP-forming subunit alpha): BNIP3L mRNA, set 1 = 0.212; NDRG1 mRNA, set 1 = 0.237
PKHD1 (PKHD1 ciliary IPT domain containing fibrocystin/polyductin): BNIP3L mRNA, set 1 = 0.051; NDRG1 mRNA, set 1 = 0.219
